Assay results: PMC12748396

Target: T1, Trem2 (triggering receptor expressed on myeloid cells 2), overexpressed by lentivirus in macrophages (UniProt Q99NH8)
T1 sequence: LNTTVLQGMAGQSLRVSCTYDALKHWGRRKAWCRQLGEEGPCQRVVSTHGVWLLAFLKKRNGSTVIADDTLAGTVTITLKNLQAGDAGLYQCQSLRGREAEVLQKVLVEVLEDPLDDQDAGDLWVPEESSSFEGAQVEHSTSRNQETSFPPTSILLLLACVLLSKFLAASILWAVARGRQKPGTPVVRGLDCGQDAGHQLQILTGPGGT
Experiment: affinity purification with mass spectrometry; immunoprecipitation of 1 x 10^7 Trem2-overexpressing macrophages stimulated with Ang II for 72 h (Millipore protocol 17-500); bands from 4-12% SDS-PAGE digested with trypsin, LC-MS/MS

B1: Interleukin-13, endogenous in senescent mouse macrophages (ligand, UniProt P20109 19-131)
chain: APGPVPRSVSLPLTLKELIEELSNITQDQTPLCNGSMVWSVDLAAGGFCVALDSLTNISNCNAIYRTQRILHGLCNRKAPTTVSSLPDTKIEVAHFITKLLSYTKQLFRHGPF
Question: For B1, which binding is on record?
Answer: binds

Results are given in words; binding and its absence hold for the method and conditions named. Binding seen in cells or lysates may run through a third protein. Here binding means that the protein was enriched with, or labelled near, the bait; the list need not be complete.
